These are literature values, as cited in US5135753A, “Method and therapeutic system for smoking cessation” (Pharmetrix Corporation, priority 1991, dated 1992).

This data set has as its system skin. The note with it: average penetration rate through the skin; very approximate figures.

SMILES strings stand for the structures.

For the molecule `CN1[C@@H]2C[C@@H](OC(=O)[C@H](CO)c3ccccc3)C[C@H]1[C@@H]1O[C@@H]12` [scopolamine], the skin flux is given as 2-8 μg/cm^2.h.
